Results deposited as PubChem BioAssay AID602196 (INSERM, 2012)
In all, the deposit lists about 23,000 reagents; shown is a part drawn at random. Over the whole deposit, 455 (2%) are marked active. 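Active includes both protection and sensitisation; some change values fall well beyond the stated -50 to +50 range.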 Entries without a mark were called inactive. Reagents against one gene are numbered here. Not stated in the record: the amount of reagent.

Purpose: 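Knock-downs that protect lung cancer cells from cisplatin or sensitise them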
Cells: human A549 lung cancer cells
Knock-down reagent: siRNA pair against human genes
Timing: 48 h transfection before cisplatin; time from cisplatin to read-out not stated
Challenge: cisplatin at a dose killing half of control-siRNA cells; exact dose and duration not given
Detection: 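Shift in cisplatin death relative to control siRNA, from -50 (all cells die) to +50 (no cells die); siRNAs harmful on their own scored 0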
Scale: two-siRNA summed score (-2 to +2): higher = both siRNAs protect from cisplatin killing; -2 means both sensitise; mean protection from cisplatin (shift in death) and protection from cisplatin (shift in death), siRNA C and protection from cisplatin (shift in death), siRNA D: higher = protection from cisplatin killing
Active means: 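siRNAs harmful alone (LDH or WST-1) get 0; others get +1 for less and -1 for more cisplatin killing; genes are active when the two siRNAs give the same sign, summing to ±2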
Calls: active = both siRNAs shift cisplatin killing the same way; inactive = no consistent shift, or siRNA harmful alone

Target gene,reagent no.,two-siRNA summed score (-2 to +2),mean protection from cisplatin (shift in death) (%),"protection from cisplatin (shift in death), siRNA C (%)","protection from cisplatin (shift in death), siRNA D (%)"
RNF214 (ring finger protein 214),1,1,16.1,10.9,21.3
ARMC2 (armadillo repeat containing 2),1,0,7.7,8.4,7
NIP7 (nucleolar pre-rRNA processing protein NIP7),1,0,6.9,18,-4.2
OGFRP1 (opioid growth factor receptor pseudogene 1),1,1,29.2,38.9,19.5
KCNH1 (potassium voltage-gated channel subfamily H member 1),1,0,-2.8,-7.2,1.6
LOC162073,1,0,2.4,5.6,-0.9
TMEFF2,1,0,11.6,9.2,14.1
FAM131A (family with sequence similarity 131 member A),1,0,-0.7,2.1,-3.5
LOC442691,1,1,11.2,7,15.4
SLC4A11,1,0,-1.7,-2.8,-0.5
LILRB5 (leukocyte immunoglobulin like receptor B5),1,0,1.6,9.4,-6.3
DIDO1 (death inducer-obliterator 1),1,-1,-9.6,-20.3,1.2
DIDO1 (death inducer-obliterator 1),2,0,11.3,16.5,6.1
TLK2 (tousled like kinase 2),1,1,-0.4,11.2,-12
ZNF569 (zinc finger protein 569),1,0,4.3,5.5,3.1
PSIP1 (PC4 and SRSF1 interacting protein 1),1,0,0.9,-0.9,2.6
SLC10A2,1,0,-4.5,-2.8,-6.1
KRTAP3-1 (keratin associated protein 3-1),1,0,9.4,6.6,12.1
WDR37 (WD repeat domain 37),1,0,4.8,0.5,9.1
PNMA8A (PNMA family member 8A),1,0,5,5,5
HEY2,1,0,-17.5,-9.8,-25.1
BLTP2 (bridge-like lipid transfer protein family member 2),1,0,7.4,3.1,11.7
CANT1 (calcium activated nucleotidase 1),1,0,7.3,13.1,1.5
MYL5 (myosin light chain 5),1,0,7.5,4.4,10.6
KLHL11 (kelch like family member 11),1,0,11.6,4.1,19.1
LOC442675,1,1,12.7,5.2,20.3
SLF2 (SMC5/6 complex localization factor 2),1,1,12.8,32.3,-6.7
LOC391840,1,-1,-5.7,8.9,-20.3
GALT (galactose-1-phosphate uridylyltransferase),1,0,-2.4,-2.8,-1.9
POLR2C (RNA polymerase II subunit C),1,0,-9.7,-17,-2.4
TMUB2 (transmembrane and ubiquitin like domain containing 2),1,0,-2.5,-4.5,-0.4
LOC440696,1,0,8.7,10.9,6.4
RHEX (regulator of hemoglobinization and erythroid cell expansion),1,0,6.2,10.4,2
TTLL7 (tubulin tyrosine ligase like 7),1,0,3.1,6.5,-0.4
"PCDHGB3 (protocadherin gamma subfamily B, 3)",1,0,9.3,8.1,10.4
ASIC5 (acid sensing ion channel subunit family member 5),1,0,-17,-12.2,-21.8
TRIM17 (tripartite motif containing 17),1,0,-9.5,-24.2,5.3
GUCY1B2 (guanylate cyclase 1 soluble subunit beta 2 (pseudogene)),1,-1,-3.7,-2.3,-5.1
LSM3,1,0,2.4,21.4,-16.6
ETV6 (ETS variant transcription factor 6),1,0,4.7,6.9,2.5
CSNK1A1P1 (casein kinase 1 alpha 1 pseudogene 1),1,1,9.4,3.2,15.6
ACBD4 (acyl-CoA binding domain containing 4),1,0,7.5,9.9,5.2
KIAA1836,1,1,15.5,0.2,30.8
LOC441066,1,0,9.1,10.3,7.9
PCDHB11 (protocadherin beta 11),1,0,13.7,16.4,10.9
DNM1P31 (dynamin 1 pseudogene 31),1,1,18.5,15.9,21.2
LOC145814,1,0,5.2,21,-10.5
XRN1 (5'-3' exoribonuclease 1),1,0,1.1,-4.4,6.6
MAZ (MYC associated zinc finger protein),1,1,16,11,21.1
UBXN11 (UBX domain protein 11),1,0,27.9,24.8,30.9
HSD3B7,1,0,11,10.5,11.5
CACNA1F (calcium voltage-gated channel subunit alpha1 F),1,1,8.3,12.9,3.8
LOC390468,1,0,0.1,3,-2.9
UNC5B (unc-5 netrin receptor B),1,1,10,24.3,-4.3
LOC391298,1,1,3.9,-13.2,20.9
NSUN5P1 (NSUN5 pseudogene 1),1,0,12.9,6.9,18.8
CNOT6 (CCR4-NOT transcription complex subunit 6),1,1,11.5,8.3,14.6

4 entries already listed, arranged by “mean protection from cisplatin (shift in death) (%)”, descending:
Target gene,reagent no.,two-siRNA summed score (-2 to +2),mean protection from cisplatin (shift in death) (%),"protection from cisplatin (shift in death), siRNA C (%)","protection from cisplatin (shift in death), siRNA D (%)"
KLHL11 (kelch like family member 11),1,0,11.6,4.1,19.1
MYL5 (myosin light chain 5),1,0,7.5,4.4,10.6
BLTP2 (bridge-like lipid transfer protein family member 2),1,0,7.4,3.1,11.7
CANT1 (calcium activated nucleotidase 1),1,0,7.3,13.1,1.5
